PubChem BioAssay AID1332 (Southern Research Institute, 2008)
In brackets after ≈: the same amount, converted by molar mass. This is one part of the list. Shown are side measurements of this screen, not its main read-out; they come without a call.

Test: Confirmatory growth inhibition assay, mycobacterium tuberculosis h37rv, with cytotoxicity (AID 1332);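 as to CC50: Vero cells exposed to compounds for 72 hours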;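 as to IC50: bacteria incubated 7 days before adding Alamar blue readout reagent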
Conditions: M. tuberculosis H37Rv growth inhibition; CC50: measured here: Vero cell cytotoxicity; IC50: measured here: IC50 H37Rv replicates

| Compound | CC50 | IC50 |
| --- | --- | --- |
| CC(CN1c2ccccc2Sc2ccccc21)N(C)C (centres undefined) | > 6 µg/mL | > 20 µg/mL |
| NS(=O)(=O)c1cc2c(cc1C(F)(F)F)NC(Cc1ccccc1)NS2(=O)=O (centres undefined) | – | > 20 µg/mL |
| CCOC(=O)C1=C(C)NC(C)=C(C(=O)OC)C1c1cccc([N+](=O)[O-])c1 (centres undefined) | – | > 20 µg/mL |
| CCn1cc(C(=O)O)c(=O)c2cc(F)c(N3CCNCC3)cc21 | – | 0.686 µg/mL (≈ 2.15 µM) |
| CC(C)(Oc1ccc(C2CC2(Cl)Cl)cc1)C(=O)O (centres undefined) | – | > 20 µg/mL |
| C[C@@H](O)[C@H]1C(=O)N2C(C(=O)O)=C(SCCN=CN)C[C@H]12 | – | > 20 µg/mL |
| O=C(NCNC(=O)NC1C(=O)NC(=O)N1CO)NC1C(=O)NC(=O)N1CO (centres undefined) | – | > 20 µg/mL |
| CC(=O)O[C@H]1CC[C@@]2(C)C(=CC[C@@H]3[C@@H]2CC[C@]2(C)C(=O)CC[C@@H]32)C1 | – | > 20 µg/mL |
| CNC1(C)C2CCC(C2)C1(C)C (centres undefined) | – | > 20 µg/mL |
| CN[C@@H]1[C@H](O[C@H]2[C@H](O[C@@H]3[C@@H](O)[C@H](O)[C@@H](N=C(N)N)[C@H](O)[C@H]3N=C(N)N)O[C@@H](C)[C@]2(O)C=O)O[C@@H](CO)[C@H](O)[C@H]1O | – | 0.794 µg/mL (≈ 1.37 µM) |
| CCC(C)(CN(C)C)OC(=O)c1ccccc1 (centres undefined) | – | > 20 µg/mL |
| Cn1c(=O)c2c(ncn2CC(O)CO)n(C)c1=O (centres undefined) | – | > 20 µg/mL |
| CN1C[C@H](CNC(=O)OCc2ccccc2)C[C@@H]2c3cccc4c3c(cn4C)C[C@H]21 | > 6 µg/mL | 4.17 µg/mL (≈ 10.3 µM) |
| Oc1ccc2c3c1O[C@H]1[C@@H](O)CC[C@@]4(O)[C@@H](C2)N(CC2CCC2)CC[C@]314 | – | > 20 µg/mL |
| CC[C@]12CCCN3CCc4c(n(c5ccccc45)[C@@](O)(C(=O)OC)C1)[C@@H]32 | – | > 20 µg/mL |
| COC1=CC(=O)O[C@@H](/C=C/c2ccccc2)C1 | – | > 20 µg/mL |
| CC(CCc1ccc(O)cc1)NCCc1ccc(O)c(O)c1 (centres undefined) | – | > 20 µg/mL |
| CN1CCc2cc3c(cc2[C@H]1[C@@H]1OC(=O)c2c1ccc1c2OCO1)OCO3 | – | > 20 µg/mL |
| CCSc1ccc2c(c1)N(CCCN1CCN(C)CC1)c1ccccc1S2 | > 6 µg/mL | 3.84 µg/mL (≈ 9.61 µM) |
| CN(C)CCC(c1ccccc1)c1ccccn1 (centres undefined) | – | > 20 µg/mL |
| C[C@]12CC[C@H](O)C[C@H]1CC[C@@H]1[C@@H]2CC[C@]2(C)[C@@H](C3=CC(=O)OC3)CC[C@]12O | 0.415 µg/mL (≈ 1.11 µM) | > 20 µg/mL |
| O=C(O)c1cc(=O)c2c(OCC(O)COc3cccc4oc(C(=O)O)cc(=O)c34)cccc2o1 | – | > 20 µg/mL |
| CC(C)c1cccc(C(C)C)c1O | – | > 20 µg/mL |

Shown field by field: entries from further up
CN(C)CCC(c1ccccc1)c1ccccn1 (centres undefined)
  IC50: > 20 µg/mL
C[C@]12CC[C@H](O)C[C@H]1CC[C@@H]1[C@@H]2CC[C@]2(C)[C@@H](C3=CC(=O)OC3)CC[C@]12O
  CC50: 0.415 µg/mL (≈ 1.11 µM)
  IC50: > 20 µg/mL

Going on with the list.

| Compound | CC50 | IC50 |
| --- | --- | --- |
| CC(=O)OC(C)C[N+](C)(C)C (centres undefined) | – | > 20 µg/mL |
| C=CCc1ccccc1OCC(O)CNC(C)C (centres undefined) | – | > 20 µg/mL |
| CCOC(=O)c1ccc(OC(=O)CCCCCN=C(N)N)cc1 | – | > 20 µg/mL |
| CCCC(C(=O)OCCN(CC)CC)(c1ccccc1)c1ccccc1 | > 6 µg/mL | > 20 µg/mL |
| C[C@H](CCC(=O)NCC(=O)O)[C@H]1CC[C@H]2[C@@H]3[C@H](O)C[C@@H]4C[C@H](O)CC[C@]4(C)[C@H]3C[C@H](O)[C@]12C | – | > 20 µg/mL |
| Clc1ccc(COC(Cn2ccnc2)c2ccc(Cl)cc2Cl)cc1 (centres undefined) | > 6 µg/mL | 1.66 µg/mL (≈ 4.34 µM) |
| Clc1ccccc1C(c1ccccc1)(c1ccccc1)n1ccnc1 | > 6 µg/mL | 1.45 µg/mL (≈ 4.2 µM) |
| CN(C)CCOC(c1ccccc1)c1ccccc1 (tested in a mixture with another compound) | – | > 20 µg/mL |
| Cc1c(C)c2c(c(C)c1O)CC[C@@](C)(CCC[C@H](C)CCC[C@H](C)CCCC(C)C)O2 | – | > 20 µg/mL |
| CCN(CCCc1ccccc1)CCCc1ccccc1 | – | > 20 µg/mL |
| CN[C@@H]1[C@@H](O)[C@@H](O[C@@H]2[C@@H](O)[C@H](O[C@H]3O[C@H]([C@@H](C)N)CC[C@H]3N)[C@@H](N)C[C@H]2N)OC[C@]1(C)O | – | 0.508 µg/mL (≈ 1.1 µM) |
| CCN(CC)C(=O)N1CCN(C)CC1 | – | > 20 µg/mL |
| Nc1ccc(N=Nc2ccccc2)c(N)n1 | – | > 20 µg/mL |
| O=C(CCCCC(=O)Nc1c(I)cc(I)c(C(=O)O)c1I)Nc1c(I)cc(I)c(C(=O)O)c1I | – | > 20 µg/mL |
| CCCCOC(=O)c1ccc(O)cc1 | – | > 16.4 µg/mL |
| CC1=CC(=O)c2ccccc2C1=O | > 6 µg/mL | 3.7 µg/mL (≈ 21.5 µM) |
| N=C(N)N1CCc2ccccc2C1 | – | > 20 µg/mL |
| CC(=O)Nc1ccc(OCC(O)CNC(C)C)cc1 (centres undefined) | – | > 20 µg/mL |
| O=C(Nc1ccccc1)OCC(CN1CCCCC1)OC(=O)Nc1ccccc1 (centres undefined) | – | > 20 µg/mL |
| Nc1ncn(C2O[C@H](CO)[C@H](O)[C@@H]2O)c(=O)n1 (some centres undefined) | 2.91 µg/mL (≈ 11.9 µM) | > 20 µg/mL |
| NCC1(CC(=O)O)CCCCC1 | – | > 20 µg/mL |
